Columns and labels:
[1] = test system: Lithium-pilocarpine induced seizure in rats; experiment: Lithium-pilocarpine induced epilepsy test (LI-PILO), prevention test; assay type: in vivo, Sprague-Dawley rats; conditions: i.p.
Method: Male Sprague-Dawley rats (purchased from Orient Bio Inc. Korea) of body weight 175 grams were used for these studies and 3 rats per cage were housed for 4-5 days. On the day prior to SE, rats received 127 mg/kg lithium chloride (Sigma, St. Louis, Mo., U.S.A.) intraperitoneally (i.p.). Approximately 18-20 h following this treatment, rats were given an i.p. injection of the concentration capable of inducing 97% intermittent convulsions pilocarpine(Sigma, 30-43 mg/kg). An i.p. injection of 2 mg/kg methyl-scopolamine (Sigma) was administered 30 min prior to pilocarpine to block the effects of the muscarinic agonist on peripheral cholinergic receptors. Test drugs were dissolved in 20% tween80 (Sigma).
The drugs were administered intraperitoneally (i.p.) in a volume of 2 μl/g body weight. Pharmacological effects of all of the test materials were evaluated to compare test groups (n=6) with a control group (n=6). Control group was administered vehicle only. The efficacy was measured 0.5, 1, 2, or 4 hours after the administration of the test material. The time point that the most animals were protected was defined as peak time and the ED50 was determined at peak time. The animals were then transferred to observation cages and observed continuously for 90 min Seizure was elicited in approximately 95% of the control group. Protection was defined as complete absence of seizure grade 3-5 (Racine scale; Racine, 1972) over the 90-min observation period. The effective dose of the compound necessary to protect 50% of the animals against seizures compared to controls (i.e., ED50) was determined by a curve fitting program (Excel 2007, Microsoft).

corneally kindled rats = experiment: Corneal kindling (CK) rat model; assay type: in vivo, Sprague-Dawley rats; conditions: p.o.
Description: Male Sprague-Dawley rats (purchased from Orient Bio Inc. Korea) of body weight 85-100 g were used for these studies. The MES test using the electroshock seizure apparatus designed by Rodent Shocker Type221 (Hugo Sachs Elektronik, Germany). The kindled rat models were electrically stimulated (8 mA, 60 Hz, 2 s, corneal electrodes) twice daily for 21 days until stage 5 seizure scored by Racine's scale (Racine, 1972) were evoked. The kindled rats were fasted and adapted to test condition, for at least 1 hour before the administration of test material. The drugs were administered orally (p.o.) in a volume of 4 μl/g body weight. The corneally kindled rat model test is a model for generalized […] seizures or bipolar disorder and identifies the compound which prevents seizure or bipolar disorder spread. The shock level was set at 8 mA, 60 Hz and the duration was set at 2 s. A drop of 0.9% saline was placed in each eye, the electrodes were placed over the eyes, and the shock was administered immediately. Pharmacological effects of the test materials were evaluated to compare the test groups (n=6) with a control group (n=6). Control group was administrated vehicle, only. The peak time was determined by administration test material's random dose for 0.5, 1, 2, 4 hour. The time that the most protect was defined peak time and ED50 was determined by other dose administration at peak time. […]

[2] = test system: PTZ (Pentylenetetrazol)-induced clonic seizure in mice; experiment: Anti-epilepsy activity, scPTZ test in mouse; assay type: in vivo, ICR mice
Description: In this experiment, each test compound sample was formulated as described in Biological Experimental Example 1, and administered intraperitoneally to the test animals (mice; ICR or Rat; SD); Experimental animals, male ICR mice and male SD rats, were purchased from OrientBio or Nara biotech, Korea, and housed 4-5 mice per a cage for 4-5 days. The range of mice body weight was used between 19 and 26 grams and range of rats body weight was used between 100 and 130 grams. After Peak time (0.5, 1, 2 and 4 hr) from the administration, PTZ (Pentylenetetrazol) was administered subcutaneously in the concentration capable of inducing 97% intermittent convulsions (mice: 100-110 mg/kg?bw, 10 μl/g, or rats: 90-110 mg/kg?bw, 2 μl/g). If clonic seizure was not observed for at least 30 minutes in the PTZ administered animal, it can be considered that the test compound has anti-epilepsy activity. The median effective dose (ED50) is determined using 6 animals per a concentration (total three different concentrations), and calculated by Litchfield and Wicoxon log-probit method which is a dose-response relationship.

[3] = test system: Picrotoxin (PIC)-induced clonic seizure in mice; experiment: Chemical induced seizure model (PIC); assay type: in vivo, ICR mice
Method: Picrotoxin (PIC) were used to induce the behavioral seizures in the experiments. Male ICR mice (purchased from Orient Bio Inc. Korea) of body weight 19-26 g (mice) were used for these studies. The test materials were administered intraperitoneal (ip) route in a volume of 10 ul/g (mice) weight in rats or mice, respectively. Pharmacological effects of the test materials were evaluated to compared test groups (n=6) with a control group (n=6). Control group was administrated vehicle, only. The peak time was determined by administration of test material's random dose for 0.5, 1, 2, 4 hour. The time that the most protect was defined as a peak time and ED50 was determined by other dose administration at the peak time. Chemical (PIC) was dissolved in 0.9% saline and administered subcutaneously (s.c.) at its CD97 (convulsive dose 97%), the dose of Chemical (PIC) that produced clonic seizures in 97% into a loose fold of skin in the midline of the neck in a volume of 10 ul/g (mice) body weight. The animals were then transferred to observation cages and observed continuously for 45 min. Clonic seizure was elicited in approximately 97% of control group. Protection was defined as a complete absence of clonic seizure over the 45-min observation period. The effective dose of compound necessary to protect against generalized convulsive seizures to 50% of controls (i.e., ED50) was determined by log probit analysis using SPSS software program (SPSS Inc.). (Reference; White H. S., J. H. Woodhead, K. S. Wilcox, J. P. Stables, H. J. Kupferberg, and H. H. Wolf. General Principles; Discovery and Preclinical Development of Antiepileptic Drugs. In: R. H. Levy, R. H. Mattson, B. S. Meldrum, and E. Perucca, eds. Antiepileptic Drugs, 5th Ed. Lippincott Williams & Wilkins, Philadelphia 2002: pp. 36-48.) The obtained results are shown in following Table 10.

Compound | Lithium pilocarpine model (pre) peak time [1] [h] | CK Peak Time (corneally kindled rats) [h] | PTZ test (ip) Peak time [2] [h] | PIC(ip) Peak Time [3] [h]
NC(=O)O[C@@H]1CCc2cccc(Cl)c2[C@@H]1O [Example 1, (1S, 2R)-8-chloro-1-hydroxy-1,2,3,4-tetrahydronaphthalen-2-yl carbamate] | 1 | 2 | 0.5 | 2
NC(=O)O[C@@H]1c2c(Cl)cccc2CC[C@@H]1O [Example 19, (1R, 2S)-8-chloro-2-hydroxy-1,2,3,4-tetrahydronaphthalen-1-yl carbamate] | 0.5 | – | – | 2
